Measurements reported in PubChem BioAssay AID504791 (Drosophila RNAi Screening Center, 2011).

Screen: 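Genes whose knock-down strengthens or weakens small-RNA reporter silencing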 (primary screen)
Cells: Drosophila S2-derived reporter cells
Knock-down reagent: long dsRNA against Drosophila genes, about 150-250 ng dsRNA per well (siRNA assay); about 80-120 ng (miRNA assay)
Timing: about 5 days (siRNA assay); about 4 days (miRNA assay)
Treatment: copper sulfate induction of reporters: 25 µM (siRNA assay); 200 mM stated (miRNA assay), 1-2 days before reading
Measurement: 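Dual luciferase assay: Renilla to firefly signal ratio in each well, scaled to the mean ratio of its plate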
Scale: siRNA reporter hit score: higher = 3 marks a strong hit with raised ratio; -3 a strong hit with lowered ratio
Hit rule: 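a well was a first-pass pick when its plate-scaled ratio rose above 1.5 (siRNA assay) or 1.6 (miRNA assay), or dropped below 0.6; a gene counted only if two separate dsRNAs agreed on retest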
In all, the deposit lists about 23,000 reagents; below is a random part of those that have a named target and a result. In the full data, 199 (0.86%) were called active. 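Plate-scaled ratios behind the calls are not deposited; printed light signals are raw; many rows marked increased or decreased are still called inactive.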 A plus sign joins genes that one reagent is predicted to hit.

{"predicted target":"RpL29","DRSC id":"DRSC04650","stable assay Renilla, run 1 (luminescence)":6130,"stable assay firefly, run 1 (luminescence)":3.95e5,"outcome":"inactive"}
{"predicted target":"CG10814","DRSC id":"DRSC06004","stable assay Renilla, run 1 (luminescence)":8386,"stable assay firefly, run 1 (luminescence)":5.87e5,"outcome":"inactive"}
{"predicted target":"Muc18B","DRSC id":"DRSC20064","stable assay Renilla, run 1 (luminescence)":5936,"stable assay firefly, run 1 (luminescence)":3.11e5,"outcome":"inactive"}
{"predicted target":"Muc18B","DRSC id":"DRSC21644","stable assay Renilla, run 1 (luminescence)":8658,"stable assay firefly, run 1 (luminescence)":4.93e5,"outcome":"inactive"}
{"predicted target":"S1P","DRSC id":"DRSC11810","stable assay Renilla, run 1 (luminescence)":7554,"stable assay firefly, run 1 (luminescence)":5.41e5,"outcome":"inactive"}
{"predicted target":"Fatp2","DRSC id":"DRSC03971","stable assay Renilla, run 1 (luminescence)":3436,"stable assay firefly, run 1 (luminescence)":4.41e5,"outcome":"inactive"}
{"predicted target":"Fatp2","DRSC id":"DRSC04178","stable assay Renilla, run 1 (luminescence)":5447,"stable assay firefly, run 1 (luminescence)":3.08e5,"outcome":"inactive"}
{"predicted target":"Fatp2","DRSC id":"DRSC04330","stable assay Renilla, run 1 (luminescence)":6058,"stable assay firefly, run 1 (luminescence)":3.44e5,"outcome":"inactive"}
{"predicted target":"ato","DRSC id":"DRSC16904","stable assay Renilla, run 1 (luminescence)":7095,"stable assay firefly, run 1 (luminescence)":3.67e5,"outcome":"inactive"}
{"predicted target":"CG10019","DRSC id":"DRSC00279","stable assay Renilla, run 1 (luminescence)":5995,"stable assay firefly, run 1 (luminescence)":2.96e5,"outcome":"inactive"}
{"predicted target":"Hesr","DRSC id":"DRSC19965","stable assay Renilla, run 1 (luminescence)":5280,"stable assay firefly, run 1 (luminescence)":3.76e5,"outcome":"inactive"}
{"predicted target":"CG4928","DRSC id":"DRSC19342","stable assay Renilla, run 1 (luminescence)":8071,"stable assay firefly, run 1 (luminescence)":5.23e5,"outcome":"inactive"}
{"predicted target":"stnB + stnA","DRSC id":"DRSC20969","stable assay Renilla, run 1 (luminescence)":5826,"stable assay firefly, run 1 (luminescence)":5.21e5,"outcome":"inactive"}
{"predicted target":"stnB + stnA","DRSC id":"DRSC21112","stable assay Renilla, run 1 (luminescence)":4424,"stable assay firefly, run 1 (luminescence)":3.44e5,"outcome":"inactive"}
{"predicted target":"stnB + stnA","DRSC id":"DRSC21113","stable assay Renilla, run 1 (luminescence)":4930,"stable assay firefly, run 1 (luminescence)":2.97e5,"outcome":"inactive"}
{"predicted target":"LBR","DRSC id":"DRSC04298","stable assay Renilla, run 1 (luminescence)":13409,"stable assay firefly, run 1 (luminescence)":1.42e6,"outcome":"inactive"}
{"predicted target":"jim","DRSC id":"DRSC11889","stable assay Renilla, run 1 (luminescence)":9633,"stable assay firefly, run 1 (luminescence)":3.40e5,"outcome":"inactive"}
{"predicted target":"msl-1","DRSC id":"DRSC03573","stable assay Renilla, run 1 (luminescence)":6620,"stable assay firefly, run 1 (luminescence)":4.42e5,"outcome":"inactive"}
{"predicted target":"Or42a","DRSC id":"DRSC04912","stable assay Renilla, run 1 (luminescence)":7455,"stable assay firefly, run 1 (luminescence)":4.23e5,"outcome":"inactive"}
{"predicted target":"Art2","DRSC id":"DRSC00627","stable assay Renilla, run 1 (luminescence)":8131,"stable assay firefly, run 1 (luminescence)":4.37e5,"outcome":"inactive"}
{"predicted target":"MtnC","DRSC id":"DRSC22879","stable assay Renilla, run 1 (luminescence)":4008,"stable assay firefly, run 1 (luminescence)":4.00e5,"outcome":"inactive"}
{"predicted target":"CG32228","DRSC id":"DRSC22296","stable assay Renilla, run 1 (luminescence)":8831,"stable assay firefly, run 1 (luminescence)":4.65e5,"outcome":"inactive"}
{"predicted target":"Als2","DRSC id":"DRSC11806","stable assay Renilla, run 1 (luminescence)":8326,"stable assay firefly, run 1 (luminescence)":2.78e5,"outcome":"inactive"}
{"predicted target":"Aasdh","DRSC id":"DRSC03467","stable assay Renilla, run 1 (luminescence)":8615,"stable assay firefly, run 1 (luminescence)":4.27e5,"outcome":"inactive"}
{"predicted target":"CG12730","DRSC id":"DRSC17885","stable assay Renilla, run 1 (luminescence)":5676,"stable assay firefly, run 1 (luminescence)":3.54e5,"outcome":"inactive"}
{"predicted target":"NimB2","DRSC id":"DRSC22645","stable assay Renilla, run 1 (luminescence)":4455,"stable assay firefly, run 1 (luminescence)":4.06e5,"outcome":"inactive"}
{"predicted target":"CG31436","DRSC id":"DRSC14661","siRNA reporter hit score":3,"stable assay Renilla, run 1 (luminescence)":6614,"stable assay firefly, run 1 (luminescence)":3.55e5,"outcome":"inactive"}
{"predicted target":"pip","DRSC id":"DRSC11382","stable assay Renilla, run 1 (luminescence)":6592,"stable assay firefly, run 1 (luminescence)":3.09e5,"outcome":"inactive"}

Quoted from the entries so far (4 entries):
{"predicted target":"Muc18B","DRSC id":"DRSC21644","stable assay Renilla, run 1 (luminescence)":8658,"stable assay firefly, run 1 (luminescence)":4.93e5,"outcome":"inactive"}
{"predicted target":"S1P","DRSC id":"DRSC11810","stable assay Renilla, run 1 (luminescence)":7554,"stable assay firefly, run 1 (luminescence)":5.41e5,"outcome":"inactive"}
{"predicted target":"Fatp2","DRSC id":"DRSC03971","stable assay Renilla, run 1 (luminescence)":3436,"stable assay firefly, run 1 (luminescence)":4.41e5,"outcome":"inactive"}
{"predicted target":"Fatp2","DRSC id":"DRSC04178","stable assay Renilla, run 1 (luminescence)":5447,"stable assay firefly, run 1 (luminescence)":3.08e5,"outcome":"inactive"}
